Test results taken from PubChem BioAssay AID504444 (National Center for Advancing Translational Sciences (NCATS), 2011).
Values joined by “and” are separate entries in the source; they are usually repeats but may differ in a detail not shown here. Equal values may be shown once. Out of some 360,000 compounds screened, about 7,500 (2.1%) were called active. The shares of active, inactive and inconclusive entries below differ from those in the screen. The call rests on the fitted dose curve; in most records, active means well fitted inhibition curve with a large enough effect; inconclusive means small, poorly fitted or top-dose-only effect, or effect the other way; inactive means flat fitted curve, though single readings scatter. Where the call is inconclusive, the potency comes from a doubtful curve fit.

Experiment: Nrf2 qHTS screen for inhibitors; further: nearly all actives have a fitted effect of over 60% in size
Conditions: A549 ARE-Fluc reporter, luciferase luminescence, 18-24 h; series mostly up to 46 µM
Outline: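 A549 ARE_Fluc cells (5000/well, 5% FBS OPTI-MEM) pre-incubated 2 h, then treated with compounds 18-24 h at 37C/5% CO2 in concentration-response. CellTiter-Fluor viability read first; BugLite luciferase luminescence after 15 min at room temperature gives Nrf2 activity.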
Potency means the concentration at half of the fitted maximal effect.

| Structure (SMILES) | Potency |
| --- | --- |
| CC(=O)N1CC(=O)Nc2ccc(Br)cc2C1c1ccc(F)cc1 (configuration not stated) | inconclusive: 23.1 µM [falling, single point] |
| COc1ccc(C(=O)C(Cc2ccccc2)N(C)C)cc1 (configuration not stated) | inconclusive: 6.51 µM [activator, single point] |
| Cc1ccc2nsnc2c1-n1c(C)nc2ccccc2c1=O | inactive |
| O=C(O)[C@H]1NC[C@H]2C[C@H]21 | inconclusive: 14.6 µM [falling, partial curve] |
| CC(=O)N1CCN(c2ccc(OC[C@H]3CO[C@](Cn4ccnc4)(c4ccc(Cl)cc4Cl)O3)cc2)CC1 | active: 18.4 µM |
| CCOC(=O)C1=C(NC(=S)NC(=O)c2ccccc2)c2ccccc2CC12CCCC2 | inconclusive: 4.61 µM [activator, partial curve, poor fit] |
| O=C(c1ccc(Cl)cc1)c1cn(Cc2ccccc2)c2cc3c(cc2c1=O)OCCO3 | inconclusive: 18.4 µM [falling, partial curve, poor fit] |
| Cc1ccc(-n2c(O)c(/C=N/Nc3ccccc3)c(=O)[nH]c2=O)cc1C | inconclusive: 5.8 µM [activator, partial curve, poor fit] |
| Cc1cc(NC(=O)CCl)nn1C | inconclusive: 18.4 µM [falling, single point] |
| Cc1cc(C)cc(N2C(=O)/C(=C\c3ccc(N4CCN(C)CC4)o3)C(=O)NC2=S)c1 | inconclusive: 20.6 µM [activator, partial curve, poor fit] |
| CCCCn1c(=O)c(C(=O)NCc2ccc(Cl)cc2)c(O)c2ccccc21 | inconclusive: 29.1 µM [falling, single point] |
| Cc1cc([N+](=O)[O-])c2ccccc2[n+]1[O-] | active: 4.11 µM |
| CCOC(=O)c1ccc(COC(=O)c2ccc(-c3nnc(-c4ccccc4)o3)cc2)o1 | inconclusive: 7.31 µM [activator, partial curve, poor fit] |
| Clc1ccc(C(Cl)(Cl)Cl)c(Cl)c1 | inactive |
| CCCC(C)C1(CC)C(=O)NC(=Nc2ccc(OC)cc2)NC1=O (configuration not stated) | inconclusive: 14.6 µM [activator, partial curve] |
| CNC(=O)Oc1cccc(-c2cn3cc(Cl)ccc3n2)c1 | inconclusive: 29.1 µM [activator, single point] |
| Cc1ccc(C(=O)C2CN3CCC2CC3)cc1 (configuration not stated) | inconclusive: 11.6 µM [activator, partial curve] |
| Cc1cccc(NP(=O)(Oc2ccccc2F)Oc2ccccc2F)c1C | inconclusive: 20.6 µM [falling, single point] |
| O=C1NC(=O)N(c2ccc(Cl)cc2)C(=O)/C1=C\c1ccc(Sc2nc3ccccc3[nH]2)o1 | inactive |
| CC(=O)OC1(C)CC(C)C(=O)C(C(O)CC2CC(=O)NC(=O)C2)C1 (configuration not stated) | active: 0.058 µM |
| CC[C@@]1(O)C(=O)OCc2c1cc1n(c2=O)Cc2cc3ccccc3nc2-1 | active: 2.06 µM |
| Cc1ccc(S(=O)(=O)N(C)CCCC(=O)N2CCN(c3ccccn3)CC2)cc1 | inconclusive: 29.1 µM [falling, single point] |
| CC(C)c1ccc(O)c(CN2CCN(c3ccccc3)CC2)c1 | inconclusive: 29.1 µM [falling, single point] |

A section of the results above, as a working copy:

| Structure (SMILES) | Potency |
| --- | --- |
| COc1ccc(C(=O)C(Cc2ccccc2)N(C)C)cc1 (configuration not stated) | inconclusive: 6.51 µM [activator, single point] |
| Cc1ccc2nsnc2c1-n1c(C)nc2ccccc2c1=O | inactive |
| O=C(O)[C@H]1NC[C@H]2C[C@H]21 | inconclusive: 14.6 µM [falling, partial curve] |
| CC(=O)N1CCN(c2ccc(OC[C@H]3CO[C@](Cn4ccnc4)(c4ccc(Cl)cc4Cl)O3)cc2)CC1 | active: 18.4 µM |
| CCOC(=O)C1=C(NC(=S)NC(=O)c2ccccc2)c2ccccc2CC12CCCC2 | inconclusive: 4.61 µM [activator, partial curve, poor fit] |
| O=C(c1ccc(Cl)cc1)c1cn(Cc2ccccc2)c2cc3c(cc2c1=O)OCCO3 | inconclusive: 18.4 µM [falling, partial curve, poor fit] |
| Cc1ccc(-n2c(O)c(/C=N/Nc3ccccc3)c(=O)[nH]c2=O)cc1C | inconclusive: 5.8 µM [activator, partial curve, poor fit] |
| Cc1cc(NC(=O)CCl)nn1C | inconclusive: 18.4 µM [falling, single point] |
| Cc1cc(C)cc(N2C(=O)/C(=C\c3ccc(N4CCN(C)CC4)o3)C(=O)NC2=S)c1 | inconclusive: 20.6 µM [activator, partial curve, poor fit] |
| CCCCn1c(=O)c(C(=O)NCc2ccc(Cl)cc2)c(O)c2ccccc21 | inconclusive: 29.1 µM [falling, single point] |
| Cc1cc([N+](=O)[O-])c2ccccc2[n+]1[O-] | active: 4.11 µM |
| CCOC(=O)c1ccc(COC(=O)c2ccc(-c3nnc(-c4ccccc4)o3)cc2)o1 | inconclusive: 7.31 µM [activator, partial curve, poor fit] |
| Clc1ccc(C(Cl)(Cl)Cl)c(Cl)c1 | inactive |

(cont.)

| Structure (SMILES) | Potency |
| --- | --- |
| COC(=O)C1=C(c2ccc(-c3ccccc3)c(F)c2)C[C@@H]2CC[C@H]1N2C(=O)NCCO | inactive |
| O=C(c1ccc(Cl)cc1)C1CCCN(Cc2cccc3cnccc23)C1 (configuration not stated) | inconclusive: 20.6 µM [falling, single point] |
| CCOC(=O)CC1c2ccccc2-n2nncc2CN1C (configuration not stated) | inactive |
| O=C1c2ccccc2C(=O)c2c1ccc1c(=O)n(-c3ccccc3)[nH]c21 | inconclusive: 1.64 µM [activator, partial curve] |
| Clc1ccc(CSC(Cn2ccnc2)c2ccc(Cl)cc2Cl)cc1 (configuration not stated) | inconclusive: 32.6 µM [falling, single point] |
| CCOC(=O)c1c(C)n(Cc2ccccc2)c2ccc(OCC(O)Cn3nc(C)cc3C)cc12 (configuration not stated) | inconclusive: 20.6 µM [falling, single point] |
| CCCCCn1c(=O)c(C(=O)Nc2ccccc2S(N)(=O)=O)c(O)c2ccccc21 | inconclusive: 29.1 µM [falling, single point] |
| Oc1ccc2c3c1OC1[C@H](O)CC[C@@]4(O)[C@@H](C2)N(CC2CC2)CC[C@]314 (some centres not stated) | inactive |
| CCN(CC)C(=O)c1ccc(NC(=O)c2cccc(S(=O)(=O)N3CCN(Cc4ccccc4)CC3)c2)cc1 | active: 2.06 µM |
| CCC(C)C1NC(=O)C(NC(=O)C(CC(C)C)N(C)C(=O)C2CCCN2C(=O)C(C)O)C(C)OC(=O)C(Cc2ccc(OC)cc2)N(C)C(=O)C2CCCN2C(=O)C(CC(C)C)NC(=O)[C@H](C)C(=O)[C@H](C(C)C)OC(=O)CC1O (some centres not stated) | active: 0.0073 µM |
| CN1CCN(c2ccc([N+](=O)[O-])c3no[n+]([O-])c23)CC1 | inconclusive: 29.1 µM [activator, single point] |
| COC(=O)C1=C(c2ccc(OC(F)(F)F)cc2)C[C@@H]2CC[C@H]1N2C(=O)NCCc1ccccc1 | inconclusive: 2.31 µM [activator, partial curve, poor fit] |
| CCc1ccc(NC(=O)CN2C(=O)C3(SCC(=O)N3c3ccc(F)c(F)c3)c3ccccc32)cc1 (configuration not stated) | inconclusive: 29.1 µM [falling, single point] |
| O=[N+]([O-])c1cccc(CCl)c1 | inconclusive: 25.9 µM [falling, partial curve, poor fit] |
| COc1ccc(CCNC(=O)N2c3ccccc3Sc3ccccc32)cc1 | active: 16.4 µM |
| COc1ccc(OCC(=O)N2CCN(Cc3nc4cc([N+](=O)[O-])ccc4n3C)CC2)cc1 | active: 23.1 µM |
| CCC(=NCc1ccc(F)cc1)c1c(O)n(C)c(=O)n(C)c1=O | inconclusive: 8.2 µM [falling, partial curve, poor fit] |
| C[n+]1ccc(-c2ccccc2)c2ccccc21 | active: 1.46 µM |
| Fc1ccc(-c2nc3c(-c4ccc(F)cc4)cnn3cc2CCN2CCOCC2)cc1 | inconclusive: 3.66 µM [falling, partial curve, poor fit] |
| CN1CCN(c2ncnc3ccc(Br)cc23)CC1 | inconclusive: 32.6 µM [falling, partial curve, poor fit] |
| CCOP(=O)(OCC)c1nc(-c2cccc3ccccc23)oc1N1CCCCC1 | inconclusive: 20.6 µM [falling, single point] |
| CC12CCC3C(CCC4(O)CC(O)CCC34C=O)C1(O)CCC2C1=CC(=O)OC1 (configuration not stated) | active: 0.461 µM |
| C#C[C@]1(O)CC[C@H]2[C@@H]3CCC4=Cc5nc6nc7ccccc7n6cc5C[C@]4(C)[C@H]3CC[C@@]21C | inconclusive: 2.06 µM [falling, full curve, poor fit] |

| Structure (SMILES) | Potency |
| --- | --- |
| O=[N+]([O-])CCO | inactive |
| COc1cc([C@@H]2c3cc4c(cc3[C@@H](O)C3COC(=O)C32)OCO4)cc(OC)c1O (some centres not stated) | inconclusive: 5.8 µM [activator, partial curve] |
| O=C(NCC(c1cccs1)N1CCOCC1)c1cc([N+](=O)[O-])cc([N+](=O)[O-])c1 (configuration not stated) | inconclusive: 29.1 µM [falling, single point] |
| Oc1c(Br)cc(Br)cc1Br | inconclusive: 32.6 µM [falling, single point] |
| Cc1cc(C)cc(OCC(=O)Nc2ccc(Cl)cc2C(=O)c2ccccc2)c1 | inconclusive: 4.11 µM [falling, single point] |
| COC(=O)C1=C(c2cc3ccccc3o2)C[C@@H]2CC[C@H]1N2C(=O)NCc1cccc2ccccc12 | inconclusive: 18.4 µM [falling, single point] |
| O=C(C1CCN(S(=O)(=O)c2ccc(Br)s2)CC1)N1CCN(c2cccc(C(F)(F)F)c2)CC1 | active: 2.91 µM |
| CC1CN=C(Nc2ccc(F)c(Cl)c2)S1 (configuration not stated) | inconclusive: 0.731 µM [activator, full curve] |
| Cn1c(=O)oc2cc(S(=O)(=O)CCC(=O)NCCc3ccccc3)ccc21 | inactive and inconclusive: 6.51 µM [activator, partial curve, poor fit] |
| C=CCn1c(O)c(C(=O)CCCCCC)c(=O)[nH]c1=O | inconclusive: 29.1 µM [falling, single point] |
| OC(Cn1c2ccccc2c2ccccc21)C[n+]1cccc2ccccc21 (configuration not stated) | inactive |
| C=CCn1c(O)c(/C=N/N2CCCCC2c2cccnc2)c(=O)[nH]c1=S (configuration not stated) | inactive |
| O=C(CCN1CC1)OCCOC(=O)CCN1CC1 | inactive |
| O=c1[nH]cc(COCC(F)(F)C(F)(F)C(F)(F)F)c(=O)[nH]1 | inactive |
| NNC(=O)c1nc[nH]c1C(=O)Nc1ccc(Cl)cc1C(=O)c1ccccc1 | inactive |
| Cc1nn2c(=O)cc(N3CCNCC3)nc2s1 | inactive |
| CC1(C)C[C@H]2C=C(C=O)[C@]3(C=O)C[C@]3(C)[C@H]2C1 | inconclusive: 29.1 µM [falling, single point] |
| COc1ccc(/C=C2\Oc3cc(OC(=O)N4CCOCC4)ccc3C2=O)c(OC)c1 | inconclusive: 32.6 µM [falling, single point] |
| CN1C(=O)N(C)C(=O)C(CCc2ccccn2)(CCc2ccccn2)C1=O | inconclusive: 0.164 µM [activator, full curve, poor fit] |
